Results taken from patent publication US20230257383A1, “COMPOUND SERVING AS BTK INHIBITOR, PREPARATION METHOD THEREFOR, AND USE THEREOF” (CHENGDU HYPERWAY PHARMACEUTICALS CO., LTD., priority 2020, published 2023).
For at least one compound, name, drawing or mass did not settle the structure.

Test system: DOHH-2-luc tumor cells in the mouse brain
Test: DOHH-2-Luc intracerebral tumor drug efficacy model test
Format: in vivo
Details: DOHH-2-Luc intracerebral model, same dose, FIG. 4
Protocol: Test Example 8: DOHH-2-Luc Intracerebral Tumor Drug Efficacy Model Test
DOHH-2-luc tumor cells were cultured in vitro with RPMI 1640 medium containing 10% fetal bovine serum and 500 ng/mL puromycin in a 37° C., 5% CO2 incubator. […] Tumor cells in logarithmic growth phase were used for inoculation of tumors in vivo.
2. Inoculation of Tumor Cell and Grouping
After the animal was anesthetized by intramuscular injection of Zoletil, it was fixed on the operating table in a prone position. The skin on the top of the head was disinfected with iodine and 75% alcohol respectively, and the skin was cut about 0.5 cm along the midline of the head to expose the coronal and sagittal lines. […]
The mice were imaged 1-2 times a week according to their state using the small animal in vivo imaging system IVIS Lumina III (Perkin Elmer). The bioluminescence imaging (BLI, unit: photons/s) signal intensity at the tumor cell inoculation site of mouse was monitored as the main indicator for evaluating tumor growth and drug efficacy. […]
The mice were intraperitoneally injected with D-luciferin (15 mg/mL, 5 μL/g according to the body weight of the experimental animal), and then inhaled anesthetized with 1%-2% isoflurane. […] The data were analyzed and processed using Living Image software (Perkin Elmer), and the optical signal intensity in ROI (regions of interest) of each animal was calculated.

Compound: CC#CC(=O)N1CC[C@@H](n2c(=O)n(-c3ccc(Oc4ccccc4)cc3)c3c(N)ncnc32)C1 [Tirabrutinib, reference compound]
- fluorescence image of brain tumor (red area = tumor size): large red areas
